{
  "source": "the RNAGym collection of RNA variant scans (doi:10.1126/science.aae0568)",
  "parents": {"B1": {"name": "tRNA (parent)", "chain": "GUUCCGUUGGCGUAAUGGUAACGCGUCUCCCUCCUAAGGAGAAGACUGCGGGUUCGAGUCCCGUACGGAACG"}},
  "note": "Variants at the background level are over-represented here.",
  "data": [
    {"variants_of": "B1", "assay": "yeast fitness relative to wild type (ratio to wild type); higher = fitter; tRNA-Arg(CCU), competitive growth, 37 C, YPD", "method_in_brief": "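Amplicons of the tRNA-Arg(CCU) gene were sequenced, 100-nucleotide paired-end, from the start population and from each end population of a pooled yeast competition. The competition, in six parallel replicates, lasted 24 hours in YPD at 37°C. Fitness relative to wild type was calculated from changes in genotype frequencies. Genotypes had to have ≥ 100 starting reads, and estimates < 0.5 were set to 0.5.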", "values": [
      {"variant": "U8C A65U A69C", "yeast fitness": 0.615},
      {"variant": "G6C A15U A42G", "yeast fitness": "≤ 0.5"},
      {"variant": "G9A C11G C24G G41A A69U", "yeast fitness": "≤ 0.5"},
      {"variant": "C34U U64A G67C A69U", "yeast fitness": "≤ 0.5"},
      {"variant": "C4A G18A A20C U26G C27U", "yeast fitness": "≤ 0.5"},
      {"variant": "C30G C60A C66U", "yeast fitness": 0.551},
      {"variant": "U3C A21G C29G", "yeast fitness": "≤ 0.5"},
      {"variant": "C5G A21G", "yeast fitness": 0.997},
      {"variant": "U7C G41A A42C G50C G63A A70G", "yeast fitness": 0.555},
      {"variant": "C24U C31G U54C C62G", "yeast fitness": "≤ 0.5"},
      {"variant": "A21G G23A C27U G44C C46G C62A", "yeast fitness": "≤ 0.5"},
      {"variant": "C29U A65C A69C", "yeast fitness": "≤ 0.5"},
      {"variant": "A20G A21U A42C", "yeast fitness": 0.547},
      {"variant": "U7C C55G G63U A69C", "yeast fitness": "≤ 0.5"},
      {"variant": "U2A G10A A20U C22G G44C C61G", "yeast fitness": 0.502},
      {"variant": "G12A A36U", "yeast fitness": 0.612},
      {"variant": "A15U C60G C66G", "yeast fitness": "≤ 0.5"},
      {"variant": "G10C G23C C30A G48C G52C A57C G58A", "yeast fitness": "≤ 0.5"},
      {"variant": "U19C A37G C62G", "yeast fitness": "≤ 0.5"},
      {"variant": "C34U A37G C46U C61A", "yeast fitness": 0.589},
      {"variant": "U28A G48C G52A", "yeast fitness": "≤ 0.5"},
      {"variant": "A20G G48C C49G C55U A57C A65G A70C", "yeast fitness": "≤ 0.5"},
      {"variant": "C5G U19G C22U U32C G58C C62U", "yeast fitness": "≤ 0.5"},
      {"variant": "U16A C24U C30G U35A U54A C62G C66U A70G", "yeast fitness": "≤ 0.5"},
      {"variant": "C4G C5U U19A U47A", "yeast fitness": "≤ 0.5"},
      {"variant": "G38C U47C U59C", "yeast fitness": "≤ 0.5"},
      {"variant": "U28G C60G C61G", "yeast fitness": "≤ 0.5"},
      {"variant": "A40C G48C U59C", "yeast fitness": "≤ 0.5"},
      {"variant": "C30G C61U G68C", "yeast fitness": "≤ 0.5"},
      {"variant": "U2C U3C A57C G67U", "yeast fitness": "≤ 0.5"},
      {"variant": "A14U C55A U59G A65C", "yeast fitness": 0.561},
      {"variant": "U8A C11U G25A C31A C33A A40U A69U", "yeast fitness": "≤ 0.5"},
      {"variant": "U2G G6A G23A C29G G51C", "yeast fitness": "≤ 0.5"},
      {"variant": "C22G C29G A42C A45C C61G A69U", "yeast fitness": "≤ 0.5"},
      {"variant": "C11G U16A C29U U53C C62G", "yeast fitness": "≤ 0.5"},
      {"variant": "A42G C62G A70C", "yeast fitness": "≤ 0.5"},
      {"variant": "A43U A65U C66A", "yeast fitness": "≤ 0.5"},
      {"variant": "C5U U53C A57G C66U", "yeast fitness": "≤ 0.5"},
      {"variant": "G38C C55G U59G", "yeast fitness": "≤ 0.5"},
      {"variant": "C33G A45C U54C", "yeast fitness": "≤ 0.5"},
      {"variant": "C4G A14C G48C A69U A70G", "yeast fitness": "≤ 0.5"},
      {"variant": "C5G G9A C27G C61U C66U", "yeast fitness": "≤ 0.5"},
      {"variant": "C55G G67A", "yeast fitness": 0.729},
      {"variant": "C24G C27U C55G", "yeast fitness": "≤ 0.5"},
      {"variant": "G6C C22A G41A G44C C49U C66U", "yeast fitness": "≤ 0.5"},
      {"variant": "C5G C22U A36G C66G", "yeast fitness": "≤ 0.5"},
      {"variant": "C29G C60U C61U C66G", "yeast fitness": "≤ 0.5"},
      {"variant": "A14C C31G G44C A69C", "yeast fitness": "≤ 0.5"},
      {"variant": "C5G A14C C30U C61A", "yeast fitness": "≤ 0.5"},
      {"variant": "C5G C11U U28A", "yeast fitness": "≤ 0.5"},
      {"variant": "U3C C24G C31A A43U A65C A70G", "yeast fitness": "≤ 0.5"},
      {"variant": "U8G C11G U32A G52C A65U G67C", "yeast fitness": "≤ 0.5"},
      {"variant": "U2A U16C C30A A65U", "yeast fitness": "≤ 0.5"},
      {"variant": "U3C U16A C30A C33A A36G", "yeast fitness": "≤ 0.5"},
      {"variant": "C5U G18A G23C C24G C46G", "yeast fitness": "≤ 0.5"},
      {"variant": "C46A A57G G68A", "yeast fitness": 0.605},
      {"variant": "C5U C29U C62G", "yeast fitness": "≤ 0.5"},
      {"variant": "G18A C29U C61U G68C", "yeast fitness": "≤ 0.5"},
      {"variant": "G9A U16C C29G C31A C33G G41A A43G C61U", "yeast fitness": "≤ 0.5"},
      {"variant": "A36C C49U G52A C62A A70U", "yeast fitness": "≤ 0.5"},
      {"variant": "U26A C33A A45C", "yeast fitness": 0.55},
      {"variant": "C29U C55U C61A", "yeast fitness": "≤ 0.5"},
      {"variant": "A37U A40C C62U A65U", "yeast fitness": "≤ 0.5"},
      {"variant": "A20G U28G C29U C49U U54A C55U A70C", "yeast fitness": "≤ 0.5"},
      {"variant": "C11U C33U C60G", "yeast fitness": "≤ 0.5"},
      {"variant": "C4U C33A U35A A43U", "yeast fitness": "≤ 0.5"},
      {"variant": "U26C C30G G52A", "yeast fitness": "≤ 0.5"},
      {"variant": "C5G G9C G48A A57U A69U", "yeast fitness": "≤ 0.5"},
      {"variant": "G10A G12A A14G C31A C34G G38C G44C U53C", "yeast fitness": "≤ 0.5"},
      {"variant": "A14U C24G U26A C29G U32A", "yeast fitness": "≤ 0.5"},
      {"variant": "A43G C49U", "yeast fitness": 0.9},
      {"variant": "U8C C11G U13C A69C", "yeast fitness": "≤ 0.5"},
      {"variant": "C5U A45C G56C", "yeast fitness": 0.572},
      {"variant": "U7G G9A C31G A36G A42U C60G", "yeast fitness": "≤ 0.5"},
      {"variant": "A14C A21U G25U A42C C55U", "yeast fitness": "≤ 0.5"},
      {"variant": "C22G C30G G68A", "yeast fitness": "≤ 0.5"},
      {"variant": "G23A C29A C31U A42G A43C U54G", "yeast fitness": "≤ 0.5"},
      {"variant": "G10A C34U", "yeast fitness": "≤ 0.5"},
      {"variant": "A21G G23A C55G C66G", "yeast fitness": "≤ 0.5"},
      {"variant": "U16A A20G C34G A40C C46G", "yeast fitness": "≤ 0.5"},
      {"variant": "G44C A65C C66U", "yeast fitness": "≤ 0.5"},
      {"variant": "A43G A70U", "yeast fitness": 1.01},
      {"variant": "G9C A36C", "yeast fitness": "≤ 0.5"},
      {"variant": "A14U U16G U19A A42G", "yeast fitness": 0.512}
    ]}
  ]
}
